Literature values in patent publication US6726911B1, “Biologically active compounds of Ganoderma pfeifferi DSM 13239” (Ganomycin, priority 1999, dated 2004).
Some entries share one result that the patent states for a list of compounds. At least one structure is not confirmed: it was looked up by name or label, or the drawing left a doubt.

By UniProt entry, the sequences of proteins in these tests, tags left out. Residues count along the entry.
UniProt P12821, 30-1306, species assumed: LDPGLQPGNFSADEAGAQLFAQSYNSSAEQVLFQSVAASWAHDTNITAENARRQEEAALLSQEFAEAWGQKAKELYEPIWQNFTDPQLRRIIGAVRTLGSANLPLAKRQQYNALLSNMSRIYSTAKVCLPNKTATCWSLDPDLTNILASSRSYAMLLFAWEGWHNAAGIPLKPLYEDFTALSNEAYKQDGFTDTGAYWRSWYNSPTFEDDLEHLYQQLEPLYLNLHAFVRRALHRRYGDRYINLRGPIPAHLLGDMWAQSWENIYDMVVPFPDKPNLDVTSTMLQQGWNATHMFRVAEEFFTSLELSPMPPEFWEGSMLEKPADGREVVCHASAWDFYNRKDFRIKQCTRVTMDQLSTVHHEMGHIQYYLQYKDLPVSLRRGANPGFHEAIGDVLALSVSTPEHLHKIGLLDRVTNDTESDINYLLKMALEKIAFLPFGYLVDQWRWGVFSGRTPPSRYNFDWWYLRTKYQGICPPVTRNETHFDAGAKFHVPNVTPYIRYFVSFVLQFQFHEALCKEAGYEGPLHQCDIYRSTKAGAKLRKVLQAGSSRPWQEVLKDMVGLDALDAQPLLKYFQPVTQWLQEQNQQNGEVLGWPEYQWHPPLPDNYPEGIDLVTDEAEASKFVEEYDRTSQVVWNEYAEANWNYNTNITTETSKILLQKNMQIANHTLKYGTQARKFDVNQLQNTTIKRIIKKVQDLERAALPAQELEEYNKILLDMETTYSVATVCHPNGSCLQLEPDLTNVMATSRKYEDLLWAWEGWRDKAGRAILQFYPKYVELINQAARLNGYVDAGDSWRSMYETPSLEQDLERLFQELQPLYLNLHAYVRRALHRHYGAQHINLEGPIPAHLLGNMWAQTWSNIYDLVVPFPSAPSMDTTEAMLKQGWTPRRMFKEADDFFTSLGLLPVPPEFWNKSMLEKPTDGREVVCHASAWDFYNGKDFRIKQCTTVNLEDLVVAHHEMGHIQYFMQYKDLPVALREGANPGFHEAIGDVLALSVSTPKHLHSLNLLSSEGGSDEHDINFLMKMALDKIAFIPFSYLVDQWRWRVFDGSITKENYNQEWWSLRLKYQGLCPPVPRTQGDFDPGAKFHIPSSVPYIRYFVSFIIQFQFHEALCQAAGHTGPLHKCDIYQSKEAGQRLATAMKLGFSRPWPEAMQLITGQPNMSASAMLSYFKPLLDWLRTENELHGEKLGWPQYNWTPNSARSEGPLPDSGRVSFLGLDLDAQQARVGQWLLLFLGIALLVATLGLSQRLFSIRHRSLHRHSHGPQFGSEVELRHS

molecular target: angiotensin-converting enzyme (Homo sapiens, UniProt P12821); conditions: in vitro; average over the listed triterpenes; Hager, reference 39; cited from earlier work

SMILES | IC50 [µM]
C/C(C=O)=C\CC[C@@H](C)[C@H]1CC[C@@]2(C)C3=CC[C@H]4C(C)(C)C(=O)CC[C@]4(C)C3=CC[C@]12C [Ganoderal A] | ~10
CC(CC(=O)C[C@@H](C)[C@H]1CC(=O)[C@@]2(C)C3=C(C(=O)C[C@]12C)[C@@]1(C)CC[C@H](O)C(C)(C)[C@@H]1C[C@@H]3O)C(=O)O (stereo partly drawn) [ganoderic acid B] | ~10
CC(CC(=O)C[C@@H](C)[C@H]1CC(=O)[C@@]2(C)C3=C(C(=O)C[C@]12C)[C@@]1(C)CCC(=O)C(C)(C)[C@@H]1C[C@@H]3O)C(=O)O (stereo partly drawn) [ganoderic acid D (C)] | ~10
CC(=O)O[C@@H]1C(=O)C2=C(C(=O)C[C@H]3C(C)(C)[C@@H](O)CC[C@]23C)[C@]2(C)C(=O)C[C@H]([C@H](C)CC(=O)CC(C)C(=O)O)[C@@]12C (stereo partly drawn) [ganoderic acid H] | ~10
CC(=O)O[C@@H]1C(=O)C2=C([C@@H](O)C[C@H]3C(C)(C)[C@@H](O)CC[C@]23C)[C@]2(C)C(=O)C[C@H]([C@H](C)CC(=O)CC(C)C(=O)O)[C@@]12C (stereo partly drawn) [ganoderic acid K] | ~10
C/C(=C/CC[C@@H](C)[C@H]1CC[C@@]2(C)C3=CC[C@H]4C(C)(C)C(=O)CC[C@]4(C)C3=CC[C@]12C)C(=O)O [ganoderic acid S] | ~10
C/C(=C\CC[C@@H](C)[C@H]1CC[C@@]2(C)C3=CC[C@H]4C(C)(C)[C@@H](O)CC[C@]4(C)C3=CC[C@]12C)C(=O)O [ganoderic acid Y] | ~10
C/C(=C\CC[C@@H](C)[C@H]1CC[C@@]2(C)C3=CC[C@H]4C(C)(C)C(=O)CC[C@]4(C)C3=CC[C@]12C)CO [ganoderol A] | ~10
C/C(=C\CC[C@@H](C)[C@H]1CC[C@@]2(C)C3=CC[C@H]4C(C)(C)[C@@H](O)CC[C@]4(C)C3=CC[C@]12C)CO [ganoderol B] | ~10
